Source: the supplement of paper PMC10849652
The list shows a part of the results.

By UniProt entry, the sequences of proteins in these tests, tags left out. Where a name states a change or a piece, a line headed by the entry shows the natural chain unless it says otherwise.
UniProt P31751: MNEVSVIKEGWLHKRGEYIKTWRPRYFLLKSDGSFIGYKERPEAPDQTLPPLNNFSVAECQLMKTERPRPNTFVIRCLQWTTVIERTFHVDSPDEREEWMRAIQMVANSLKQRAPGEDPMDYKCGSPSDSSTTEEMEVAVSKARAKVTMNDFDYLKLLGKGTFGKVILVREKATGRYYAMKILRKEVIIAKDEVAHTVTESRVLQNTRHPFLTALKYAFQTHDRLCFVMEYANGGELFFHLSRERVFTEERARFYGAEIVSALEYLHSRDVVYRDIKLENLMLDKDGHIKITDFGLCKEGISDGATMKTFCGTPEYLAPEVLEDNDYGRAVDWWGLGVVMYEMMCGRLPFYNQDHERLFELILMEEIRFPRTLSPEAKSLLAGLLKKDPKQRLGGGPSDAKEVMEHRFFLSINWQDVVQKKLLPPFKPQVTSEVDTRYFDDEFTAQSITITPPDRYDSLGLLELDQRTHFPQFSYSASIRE
UniProt P49189: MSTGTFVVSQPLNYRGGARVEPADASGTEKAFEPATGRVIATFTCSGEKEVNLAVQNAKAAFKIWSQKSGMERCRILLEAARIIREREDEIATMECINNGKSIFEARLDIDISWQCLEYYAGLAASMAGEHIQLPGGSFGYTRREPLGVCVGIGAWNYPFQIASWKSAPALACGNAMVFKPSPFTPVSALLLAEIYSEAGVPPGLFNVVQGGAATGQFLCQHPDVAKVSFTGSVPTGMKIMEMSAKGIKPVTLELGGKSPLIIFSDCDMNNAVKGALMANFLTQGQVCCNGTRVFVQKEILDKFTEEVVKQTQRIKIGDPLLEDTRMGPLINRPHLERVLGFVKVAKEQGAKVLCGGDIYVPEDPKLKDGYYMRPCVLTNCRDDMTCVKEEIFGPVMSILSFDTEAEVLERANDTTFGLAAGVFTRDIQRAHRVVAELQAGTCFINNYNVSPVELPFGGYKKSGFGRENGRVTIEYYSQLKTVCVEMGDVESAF
UniProt P35611: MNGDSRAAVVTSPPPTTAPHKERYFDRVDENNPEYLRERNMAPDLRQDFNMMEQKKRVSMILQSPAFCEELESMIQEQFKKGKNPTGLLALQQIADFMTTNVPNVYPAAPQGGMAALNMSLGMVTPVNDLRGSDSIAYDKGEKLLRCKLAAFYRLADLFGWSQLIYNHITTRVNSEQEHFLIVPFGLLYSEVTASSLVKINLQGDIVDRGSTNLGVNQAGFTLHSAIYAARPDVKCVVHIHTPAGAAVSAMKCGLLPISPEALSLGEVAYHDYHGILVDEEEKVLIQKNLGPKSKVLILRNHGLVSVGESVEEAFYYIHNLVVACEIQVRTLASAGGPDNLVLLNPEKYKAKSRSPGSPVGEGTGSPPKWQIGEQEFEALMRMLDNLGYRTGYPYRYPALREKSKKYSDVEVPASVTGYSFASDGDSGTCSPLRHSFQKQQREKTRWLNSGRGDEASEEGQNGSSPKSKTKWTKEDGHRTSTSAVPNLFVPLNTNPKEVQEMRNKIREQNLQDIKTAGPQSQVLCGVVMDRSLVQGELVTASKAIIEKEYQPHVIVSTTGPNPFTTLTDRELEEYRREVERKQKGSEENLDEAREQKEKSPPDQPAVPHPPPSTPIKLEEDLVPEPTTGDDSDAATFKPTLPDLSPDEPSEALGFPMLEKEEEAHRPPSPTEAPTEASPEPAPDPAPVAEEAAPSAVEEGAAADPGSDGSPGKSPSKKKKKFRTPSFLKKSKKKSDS
UniProt Q8TCU4: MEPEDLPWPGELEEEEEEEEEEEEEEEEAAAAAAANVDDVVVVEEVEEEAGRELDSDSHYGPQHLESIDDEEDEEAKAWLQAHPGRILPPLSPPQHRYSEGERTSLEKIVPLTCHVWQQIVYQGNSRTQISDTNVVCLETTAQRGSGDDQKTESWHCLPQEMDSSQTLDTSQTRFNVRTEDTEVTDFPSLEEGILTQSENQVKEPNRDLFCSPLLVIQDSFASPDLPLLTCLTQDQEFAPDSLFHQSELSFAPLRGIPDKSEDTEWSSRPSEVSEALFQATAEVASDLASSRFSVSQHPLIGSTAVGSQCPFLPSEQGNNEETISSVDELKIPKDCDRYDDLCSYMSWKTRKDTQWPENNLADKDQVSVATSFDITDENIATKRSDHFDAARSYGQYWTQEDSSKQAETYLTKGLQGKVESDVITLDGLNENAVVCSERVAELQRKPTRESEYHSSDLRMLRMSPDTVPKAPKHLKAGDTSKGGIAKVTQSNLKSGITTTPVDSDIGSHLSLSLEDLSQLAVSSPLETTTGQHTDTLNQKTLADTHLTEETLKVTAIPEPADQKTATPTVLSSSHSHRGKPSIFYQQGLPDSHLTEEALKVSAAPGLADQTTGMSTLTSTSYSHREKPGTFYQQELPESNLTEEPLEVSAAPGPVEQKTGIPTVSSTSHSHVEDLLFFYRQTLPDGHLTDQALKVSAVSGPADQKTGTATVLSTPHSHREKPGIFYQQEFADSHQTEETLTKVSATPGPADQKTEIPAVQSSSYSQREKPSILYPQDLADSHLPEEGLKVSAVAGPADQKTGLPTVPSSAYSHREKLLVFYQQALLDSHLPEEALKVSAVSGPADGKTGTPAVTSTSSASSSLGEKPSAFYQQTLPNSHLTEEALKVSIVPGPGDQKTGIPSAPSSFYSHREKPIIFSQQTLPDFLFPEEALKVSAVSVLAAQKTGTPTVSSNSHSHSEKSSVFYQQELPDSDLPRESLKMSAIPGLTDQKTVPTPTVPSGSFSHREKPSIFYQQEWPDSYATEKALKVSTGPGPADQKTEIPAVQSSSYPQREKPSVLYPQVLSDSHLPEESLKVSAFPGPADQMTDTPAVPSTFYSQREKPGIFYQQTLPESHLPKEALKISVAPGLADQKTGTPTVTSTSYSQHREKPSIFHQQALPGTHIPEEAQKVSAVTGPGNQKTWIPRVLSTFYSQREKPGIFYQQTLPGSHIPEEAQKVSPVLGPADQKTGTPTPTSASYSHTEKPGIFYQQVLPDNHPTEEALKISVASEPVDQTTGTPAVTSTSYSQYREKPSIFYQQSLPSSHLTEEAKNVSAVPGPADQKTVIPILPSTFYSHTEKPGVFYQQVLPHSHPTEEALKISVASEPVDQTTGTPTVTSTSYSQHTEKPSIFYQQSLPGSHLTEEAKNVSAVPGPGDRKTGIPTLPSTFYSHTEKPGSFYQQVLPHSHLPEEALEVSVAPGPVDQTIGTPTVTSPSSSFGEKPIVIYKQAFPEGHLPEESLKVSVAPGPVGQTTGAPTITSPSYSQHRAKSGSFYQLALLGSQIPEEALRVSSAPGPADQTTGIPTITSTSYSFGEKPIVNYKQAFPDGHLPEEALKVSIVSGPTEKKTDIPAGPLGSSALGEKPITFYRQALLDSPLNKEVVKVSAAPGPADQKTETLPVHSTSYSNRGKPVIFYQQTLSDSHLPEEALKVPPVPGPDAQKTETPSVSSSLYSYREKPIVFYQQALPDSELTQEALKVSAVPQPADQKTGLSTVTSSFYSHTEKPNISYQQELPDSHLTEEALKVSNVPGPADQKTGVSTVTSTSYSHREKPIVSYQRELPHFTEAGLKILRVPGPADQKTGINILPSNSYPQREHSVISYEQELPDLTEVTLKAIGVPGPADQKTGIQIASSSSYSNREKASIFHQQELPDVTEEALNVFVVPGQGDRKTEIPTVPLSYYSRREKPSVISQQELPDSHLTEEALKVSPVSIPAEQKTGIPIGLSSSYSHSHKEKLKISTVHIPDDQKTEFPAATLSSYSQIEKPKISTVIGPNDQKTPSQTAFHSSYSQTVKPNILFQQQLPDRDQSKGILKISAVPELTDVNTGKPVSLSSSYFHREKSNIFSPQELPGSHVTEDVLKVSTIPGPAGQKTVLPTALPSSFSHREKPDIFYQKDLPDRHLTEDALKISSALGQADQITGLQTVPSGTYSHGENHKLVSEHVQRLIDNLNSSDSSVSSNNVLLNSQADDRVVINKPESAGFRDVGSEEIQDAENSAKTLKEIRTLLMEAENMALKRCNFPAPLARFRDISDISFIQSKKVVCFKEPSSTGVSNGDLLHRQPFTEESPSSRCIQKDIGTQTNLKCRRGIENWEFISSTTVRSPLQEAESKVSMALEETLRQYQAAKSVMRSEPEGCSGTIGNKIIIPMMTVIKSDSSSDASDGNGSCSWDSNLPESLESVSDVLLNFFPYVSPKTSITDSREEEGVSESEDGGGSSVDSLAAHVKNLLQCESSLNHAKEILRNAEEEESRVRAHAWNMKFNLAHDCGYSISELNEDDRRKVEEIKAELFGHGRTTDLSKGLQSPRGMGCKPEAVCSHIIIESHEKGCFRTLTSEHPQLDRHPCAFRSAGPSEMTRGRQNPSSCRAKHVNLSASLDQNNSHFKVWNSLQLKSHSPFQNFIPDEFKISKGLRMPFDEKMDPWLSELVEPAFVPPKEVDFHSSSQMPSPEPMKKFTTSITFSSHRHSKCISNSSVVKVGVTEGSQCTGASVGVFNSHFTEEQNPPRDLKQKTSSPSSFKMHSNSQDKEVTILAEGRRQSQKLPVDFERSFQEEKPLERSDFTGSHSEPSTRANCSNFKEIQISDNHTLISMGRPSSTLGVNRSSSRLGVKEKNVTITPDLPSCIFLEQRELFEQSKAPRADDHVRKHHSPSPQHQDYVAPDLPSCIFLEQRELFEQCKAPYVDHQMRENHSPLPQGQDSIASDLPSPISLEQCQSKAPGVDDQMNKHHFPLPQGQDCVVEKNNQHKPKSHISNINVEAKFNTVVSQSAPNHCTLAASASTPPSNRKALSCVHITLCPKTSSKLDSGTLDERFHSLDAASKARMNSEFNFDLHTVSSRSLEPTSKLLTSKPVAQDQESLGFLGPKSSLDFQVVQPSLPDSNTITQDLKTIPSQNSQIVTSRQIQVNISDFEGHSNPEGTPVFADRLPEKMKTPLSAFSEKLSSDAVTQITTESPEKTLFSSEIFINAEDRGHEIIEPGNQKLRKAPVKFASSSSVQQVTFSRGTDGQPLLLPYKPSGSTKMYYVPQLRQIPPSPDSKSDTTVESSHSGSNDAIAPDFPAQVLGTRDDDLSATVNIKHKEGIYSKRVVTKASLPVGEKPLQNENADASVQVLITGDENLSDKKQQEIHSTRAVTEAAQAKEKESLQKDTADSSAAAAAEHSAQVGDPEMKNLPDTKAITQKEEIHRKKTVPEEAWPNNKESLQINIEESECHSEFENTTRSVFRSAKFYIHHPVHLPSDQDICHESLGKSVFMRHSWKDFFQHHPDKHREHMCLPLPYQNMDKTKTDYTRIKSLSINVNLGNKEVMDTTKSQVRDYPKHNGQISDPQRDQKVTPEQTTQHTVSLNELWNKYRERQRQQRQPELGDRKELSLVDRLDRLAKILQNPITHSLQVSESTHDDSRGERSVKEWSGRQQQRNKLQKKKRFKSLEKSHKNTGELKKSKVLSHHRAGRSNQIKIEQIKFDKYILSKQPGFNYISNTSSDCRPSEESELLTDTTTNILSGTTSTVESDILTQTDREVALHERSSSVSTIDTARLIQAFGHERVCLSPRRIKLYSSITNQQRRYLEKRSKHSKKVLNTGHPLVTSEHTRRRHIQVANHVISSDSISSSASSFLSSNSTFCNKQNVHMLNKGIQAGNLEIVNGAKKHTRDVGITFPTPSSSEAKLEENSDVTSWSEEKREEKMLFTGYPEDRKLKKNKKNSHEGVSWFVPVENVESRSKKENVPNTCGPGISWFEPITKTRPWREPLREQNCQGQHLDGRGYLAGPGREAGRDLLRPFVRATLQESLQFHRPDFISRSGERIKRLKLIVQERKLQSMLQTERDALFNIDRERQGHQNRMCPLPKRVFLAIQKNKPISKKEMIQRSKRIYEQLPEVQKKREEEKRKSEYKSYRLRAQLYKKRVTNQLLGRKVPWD
UniProt P13196: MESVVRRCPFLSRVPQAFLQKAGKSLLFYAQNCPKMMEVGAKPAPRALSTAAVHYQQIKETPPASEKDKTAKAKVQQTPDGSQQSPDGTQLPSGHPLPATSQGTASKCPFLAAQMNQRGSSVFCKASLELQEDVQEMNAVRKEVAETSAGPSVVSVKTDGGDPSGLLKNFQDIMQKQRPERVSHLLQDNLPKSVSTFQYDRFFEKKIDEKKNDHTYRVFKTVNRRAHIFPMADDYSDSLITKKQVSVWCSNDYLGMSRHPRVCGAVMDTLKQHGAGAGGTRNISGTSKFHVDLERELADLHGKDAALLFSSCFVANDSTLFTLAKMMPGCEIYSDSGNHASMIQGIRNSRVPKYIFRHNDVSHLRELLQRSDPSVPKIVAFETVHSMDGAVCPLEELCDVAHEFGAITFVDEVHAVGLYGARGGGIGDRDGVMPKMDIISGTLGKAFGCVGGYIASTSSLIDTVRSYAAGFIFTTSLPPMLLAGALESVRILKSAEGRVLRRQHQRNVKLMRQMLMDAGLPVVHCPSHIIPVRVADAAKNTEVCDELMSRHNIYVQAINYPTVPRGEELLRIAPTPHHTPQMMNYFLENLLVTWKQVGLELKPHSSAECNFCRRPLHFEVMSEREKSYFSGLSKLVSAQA

Key:
Test in all cases: log2 fold change, soluble protein after heating vs DMSO (PISA); higher = thermal stabilisation; K562 cells, 10 uM, 30 min; active = over 0.2 and 3.5 SD of the protein, either way, in both replicates (recomputed)
bafetinib = compound: Cc1ccc(NC(=O)c2ccc(CN3CC[C@H](N(C)C)C3)c(C(F)(F)F)c2)cc1Nc1nccc(-c2cncnc2)n1 [bafetinib]
Outline: (§1)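 K562 cells at 2×10^6 cells/mL were given 10 μM compound for 30 min. Aliquots then went through 3 min of heating across 48°C-58°C, were pooled, and were extracted in PBS with 0.5% NP-40 at 4°C, and the supernatant after 21,000xg for 90 min was quantified by TMTpro 16plex LC-MS/MS with channel sums equalised. Thermal stability relative to control samples, from duplicates, is given as log2 fold change.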

[1] = compound: Cc1cccc(CC(=O)N2CCc3c2ccc(-c2cn(C)c4ncnc(N)c24)c3F)n1
Outline: as §1

nilotinib = compound: Cc1cn(-c2cc(NC(=O)c3ccc(C)c(Nc4nccc(-c5cccnc5)n4)c3)cc(C(F)(F)F)c2)cn1 [nilotinib]
Outline: as §1

[2] = compound: Cc1nc(Nc2n[nH]c3c2CN(C(=O)N[C@H](CN(C)C)c2ccccc2)C3(C)C)c2sccc2n1
Outline: as §1

dasatinib = compound: Cc1nc(Nc2ncc(C(=O)Nc3c(C)cccc3Cl)s2)cc(N2CCN(CCO)CC2)n1 [dasatinib]
Outline: as §1

[3] = compound: Cc1ncc(-c2ccnc(Nc3ccc(S(C)(=O)=O)cc3)n2)n1C(C)C
Outline: as §1

[4] = compound: Cn1cc(-c2ccc3c(c2)CCN3C(=O)Cc2cccc(C(F)(F)F)c2)c2c(N)ncnc21
Outline: as §1

[5] = compound: Cn1cc(-c2ccc3nnc(C(F)(F)c4ccc5ncccc5c4)n3n2)cn1
Outline: as §1

tipifarnib = compound: Cn1cncc1[C@@](N)(c1ccc(Cl)cc1)c1ccc2c(c1)c(-c1cccc(Cl)c1)cc(=O)n2C [tipifarnib]
Outline: as §1

mubritinib = compound: FC(F)(F)c1ccc(/C=C/c2nc(COc3ccc(CCCCn4ccnn4)cc3)co2)cc1 [mubritinib]
Outline: as §1

Measured: log2 fold change

AKR1B1 (UniProt P15121)
inactive: bafetinib -0.129 | [1] 0.002 | nilotinib 0.005 | [2] -0.067 | dasatinib 0.042 | [3] 0.04 | [4] 0.021 | [5] -0.013 | tipifarnib -0.157 | mubritinib 0.019

ALKBH5 (UniProt Q6P6C2)
inactive: bafetinib 0.038 | [1] -0.15 | nilotinib 0.018 | [2] -0.025 | dasatinib 0.014 | [3] 0.011 | [4] -0.042 | [5] 0.011 | tipifarnib 0.077 | mubritinib -0.019

ALG2 (UniProt Q9H553)
inactive: bafetinib -0.085 | [1] -0.045 | nilotinib -0.008 | [2] 0.003 | dasatinib -0.011 | [3] -0.006 | [4] 0.016 | [5] 0.056 | tipifarnib 0.003 | mubritinib 0.025

ALDH18A1 (UniProt P54886)
active: mubritinib -0.561
inactive: bafetinib -0.206 | [1] 0.071 | nilotinib -0.3 | [2] -0.15 | dasatinib -0.133 | [3] 0.042 | [4] -0.202 | [5] -0.128 | tipifarnib -0.141

AIMP2 (UniProt Q13155)
inactive: bafetinib 0.118 | [1] -0.04 | nilotinib -0.158 | [2] 0.021 | dasatinib 0.073 | [3] -0.034 | [4] -0.162 | [5] -0.17 | tipifarnib -0.04 | mubritinib -0.162

AGO2 (UniProt Q9UKV8)
inactive: bafetinib 0.011 | [1] -0.03 | nilotinib 0.03 | [2] 0.066 | dasatinib 0.075 | [3] 0.079 | [4] -0.064 | [5] 0.024 | tipifarnib 0.069 | mubritinib -0.022

ALG8 (UniProt Q9BVK2)
inactive: bafetinib -0.008 | [1] 0.014 | nilotinib -0.062 | [2] 0.047 | dasatinib -0.038 | [3] -0.012 | [4] 0.059 | [5] 0.016 | tipifarnib -0.094 | mubritinib -0.002

AKT2 (UniProt P31751)
inactive: bafetinib 0.021 | [1] 0.049 | nilotinib -0.037 | [2] -0.144 | dasatinib -0.145 | [3] -0.108 | [4] 0.019 | [5] -0.034 | tipifarnib -0.185 | mubritinib 0.037

ALDH9A1 isoform 3 (UniProt P49189)
inactive: bafetinib -0.003 | [1] 0.001 | nilotinib 0.012 | [2] -0.019 | dasatinib 0.025 | [3] -0.018 | [4] 0.041 | [5] 0.001 | tipifarnib -0.002 | mubritinib -0.005

AIFM1 (UniProt O95831)
inactive: bafetinib -0.039 | [1] -0.038 | nilotinib 0.02 | [2] -0.002 | dasatinib 0.029 | [3] -0.012 | [4] 0.026 | [5] 0.031 | tipifarnib -0.02 | mubritinib 0.023

ALKBH4 (UniProt Q9NXW9)
inactive: bafetinib 0.038 | [1] 0.087 | dasatinib 0 | [4] -0.022 | [5] 0.017 | tipifarnib -0.001 | mubritinib -0.122

ADIPOR1 (UniProt Q96A54)
inactive: bafetinib -0.089 | nilotinib -0.057 | [2] 0.065 | dasatinib -0.077 | [3] 0.003 | [5] 0 | tipifarnib -0.051 | mubritinib 0.1

AMN1 (UniProt Q8IY45)
inactive: bafetinib -0.112 | [1] -0.075 | nilotinib -0.006 | [2] -0.041 | dasatinib -0.082 | [3] 0.048 | [4] 0.008 | tipifarnib -0.003 | mubritinib 0.047

AFF1 isoform 2 (UniProt P51825)
inactive: bafetinib 0.344 | [1] -0.022 | nilotinib -0.181 | [2] 0.024 | dasatinib 0.115 | [3] -0.05 | tipifarnib 0.093 | mubritinib -0.091

ALG6 (UniProt Q9Y672)
inactive: bafetinib 0.005 | [1] 0.016 | nilotinib 0.037 | [2] 0.002 | dasatinib -0.032 | [3] -0.049 | [4] -0.016 | tipifarnib -0.075 | mubritinib 0.026

AGA (UniProt P20933)
inactive: bafetinib -0.114 | [1] -0.112 | [4] -0.009 | tipifarnib 0.248 | mubritinib -0.03

ALDOA (UniProt P04075)
inactive: bafetinib 0.048 | [1] -0.137 | nilotinib 0.108 | [2] -0.014 | dasatinib 0.287 | [3] -0.001 | [5] -0.079 | tipifarnib 0.078 | mubritinib 0.002

AIP (UniProt O00170)
inactive: bafetinib 0.017 | [1] 0.02 | nilotinib -0.062 | [2] -0.009 | dasatinib -0.144 | [3] 0.056 | [4] 0.031 | [5] 0.012 | tipifarnib -0.058 | mubritinib 0.015

ALG12 (UniProt Q9BV10)
inactive: bafetinib 0.009 | dasatinib 0.027 | [4] 0.076 | tipifarnib -0.051 | mubritinib -0.011

ALDH4A1 (UniProt P30038)
inactive: bafetinib -0.055 | [1] -0.061 | nilotinib 0.034 | [2] -0.023 | dasatinib 0 | [3] -0.024 | [4] 0.073 | [5] 0.038 | tipifarnib 0.029 | mubritinib -0.164

AMD1 (UniProt P17707)
inactive: bafetinib 0.091 | [1] -0.141 | nilotinib -0.089 | [2] 0.001 | [3] -0.037 | [5] -0.071 | tipifarnib -0.022 | mubritinib 0.056

ALDH3A2 isoform 2 (UniProt P51648)
inactive: bafetinib -0.293 | dasatinib -0.42

ADD1 isoform 4 (UniProt P35611)
inactive: bafetinib -0.034 | [1] 0.033 | [4] 0.114

ALKBH8 isoform 4 (UniProt Q96BT7)
inactive: bafetinib 0.05 | [1] 0.057 | dasatinib -0.059 | [4] 0.198 | mubritinib -0.048

ADD1 isoform 3 (UniProt P35611)
inactive: bafetinib -0.018 | [1] 0.068 | nilotinib 0.014 | [2] -0.02 | dasatinib 0.041 | [3] -0.093 | [4] 0.009 | [5] 0.014 | tipifarnib 0.015 | mubritinib 0.033

ANAPC11 (UniProt Q9NYG5)
inactive: bafetinib -0.063 | dasatinib -0.016 | [4] -0.091

AHCTF1 isoform 2 (UniProt Q8WYP5)
inactive: bafetinib -0.075 | [1] 0.048 | nilotinib -0.376 | [2] 0.021 | dasatinib -0.024 | [3] -0.261 | [4] -0.459 | [5] -0.004 | mubritinib 0.016

AFDN isoform 1 (UniProt P55196)
inactive: bafetinib -0.053 | [1] -0.077 | dasatinib -0.152 | [4] -0.027 | [5] 0.07 | mubritinib 0.031

Pulled one by one from the list above (2):
ADD1 isoform 3 (UniProt P35611)
inactive: bafetinib -0.018 | [1] 0.068 | nilotinib 0.014 | [2] -0.02 | dasatinib 0.041 | [3] -0.093 | [4] 0.009 | [5] 0.014 | tipifarnib 0.015 | mubritinib 0.033

AHCTF1 isoform 2 (UniProt Q8WYP5)
inactive: bafetinib -0.075 | [1] 0.048 | nilotinib -0.376 | [2] 0.021 | dasatinib -0.024 | [3] -0.261 | [4] -0.459 | [5] -0.004 | mubritinib 0.016

Following part:

AFF4 (UniProt Q9UHB7)
inactive: bafetinib 0.415 | [1] -0.069 | dasatinib -0.044 | mubritinib -0.041

AMBP (UniProt P02760)
inactive: bafetinib -0.235 | [1] -0.01 | dasatinib 0 | [4] 0.21 | tipifarnib 0.12 | mubritinib -0.298

ALMS1 (UniProt Q8TCU4)
inactive: bafetinib -0.132 | [1] 0.032 | nilotinib -0.095 | [2] 0.131 | [3] -0.016

ALAS1 (UniProt P13196)
inactive: bafetinib 0.051 | [1] -0.084 | tipifarnib 0.026 | mubritinib 0.001

ADPRH (UniProt P54922)
inactive: bafetinib 0.082 | [1] -0.29 | nilotinib 0.141 | [2] 0.026 | [3] -0.161 | [5] 0.038 | tipifarnib -0.005 | mubritinib 0.015
